Data as given in PubChem BioAssay AID1259424 (University of Nebraska Medical Center, 2018).
Assay: 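Rank knockdowns across the genome by resemblance to the KSR1 depletion profile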 (primary screen). Cells: human HCT116 colon cancer cells. Knock-down reagent: siRNA pool against human genes, 50 nM. Measurement: 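Six signature mRNAs by branched-DNA multiplex assay, scaled to two housekeeping genes and non-targeting median, log2; matched to mean KSR1 knockdown profile by Pearson correlation and euclidean distance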. Direction: mean correlation with KSR1 profile and KSR1 correlation: higher = expression change more like KSR1 knockdown; mean distance from KSR1 profile: higher = expression change less like KSR1 knockdown.
The deposit covers about 14,000 reagents; shown is an unselected part. 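Higher correlation or smaller distance means closer resemblance to KSR1 loss; control wells, including KSR1 knockdowns, recur on many plates.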 Not stated in the record: the time to read-out.

mean correlation with KSR1 profile | mean distance from KSR1 profile | KSR1 correlation, replicate 1 | KSR1 correlation, replicate 2 | KSR1 correlation, replicate 3 | target gene
-0.324 | 2.9 | -0.29 | -0.344 | -0.313 | AP3S2
0.18 | 1.05 | 0.18 | 0.321 | 0.232 | ESM1
0.0717 | 4.27 | -0.00365 | 0.00512 | 0.0376 | PSMB6
-0.303 | 4.45 | -0.28 | -0.432 | -0.312 | HPS3
-0.163 | 1.33 | -0.228 | 0.0813 | -0.157 | SRSF5
0.41 | 2.27 | 0.396 | 0.452 | 0.261 | WDR82
-0.445 | 2.83 | -0.166 | -0.406 | -0.561 | AD7C-NTP (retired record)
0.234 | 2.12 | 0.266 | 0.103 | 0.0824 | BMP2K
0.464 | 3.64 | 0.283 | 0.644 | 0.518 | PCDHB13
-0.211 | 3.52 | -0.445 | -0.212 | -0.279 | KDM3A
-0.281 | 3.37 | -0.27 | -0.288 | -0.0161 | C5orf15
0.236 | 2.86 | 0.368 | 0.162 | 0.136 | NEK8
0.0886 | 1.68 | -0.144 | -0.0193 | 0.293 | NDUFA12
-0.487 | 1.96 | -0.31 | -0.758 | -0.308 | KIAA0753
0.0132 | 1.27 | -0.271 | 0.248 | 0.0938 | YTHDF1
-0.841 | 2.82 | -0.707 | -0.816 | -0.835 | PDE8B
-0.158 | 2.17 | -0.348 | -0.301 | 0.157 | TPO
-0.424 | 2.75 | -0.217 | -0.332 | -0.52 | PIGF
-0.203 | 1.41 | 0.0713 | -0.628 | -0.162 | PBX3
0.0549 | 2.03 | 0.0702 | -0.0647 | 0.0166 | HMOX1
-0.492 | 2.69 | -0.365 | -0.566 | -0.569 | PDE4C
-0.308 | 4.11 | -0.411 | -0.142 | -0.291 | PRY
0.838 | 0.911 | 0.819 | 0.874 | 0.764 | TIMELESS
-0.384 | 1.94 | -0.484 | -0.264 | -0.43 | MAP6
-0.471 | 2.52 | -0.575 | -0.502 | -0.404 | SLC47A1

Single entries from above.
SRSF5, KSR1 correlation, replicate 1 → -0.228
Under “KSR1 correlation, replicate 3”, WDR82 reads 0.261
For “mean correlation with KSR1 profile”, NEK8 shows 0.236
Value of AP3S2 under “mean distance from KSR1 profile”: 2.9
Entry for KDM3A in “mean distance from KSR1 profile”: 3.52
Entry for PSMB6 in “KSR1 correlation, replicate 2”: 0.00512

The list goes on.
mean correlation with KSR1 profile | mean distance from KSR1 profile | KSR1 correlation, replicate 1 | KSR1 correlation, replicate 2 | KSR1 correlation, replicate 3 | target gene
-0.501 | 2.2 | -0.324 | -0.509 | -0.411 | AIRIM
0.559 | 4.52 | 0.486 | 0.456 | 0.684 | SPDEF
0.294 | 2.34 | 0.247 | 0.081 | 0.458 | HCLS1
-0.291 | 2.25 | -0.229 | -0.322 | -0.213 | KRT38
0.737 | 1 | 0.797 | 0.764 | 0.621 | ZXDC
0.591 | 2.04 | 0.637 | 0.723 | 0.433 | EHMT1
0.953 | 2.67 | 0.971 | 0.968 | 0.834 | ZNF385D
0.466 | 1.97 | 0.364 | 0.524 | 0.705 | EXOSC5
0.32 | 2.63 | 0.28 | 0.387 | 0.0411 | GALK2
0.376 | 1.61 | 0.675 | 0.034 | -0.183 | RYK
-0.378 | 2.94 | -0.616 | -0.00761 | -0.409 | GRB7
-0.345 | 1.7 | -0.136 | -0.0642 | -0.336 | PRKAR1B
0.274 | 1.99 | 0.234 | 0.335 | 0.0951 | C8G
-0.83 | 2.78 | -0.864 | -0.851 | -0.904 | KREMEN2
-0.31 | 1.57 | -0.204 | -0.244 | -0.141 | DLGAP2
0.354 | 2.69 | 0.33 | 0.311 | 0.276 | ASCC2
-0.0128 | 3.08 | 0.195 | -0.0992 | -0.447 | KRTAP4-1
-0.0678 | 2.03 | 0.101 | -0.198 | -0.142 | ABCC2
0.443 | 1.63 | 0.428 | 0.447 | 0.263 | PPAT
-0.253 | 4.72 | -0.234 | -0.123 | -0.291 | TBXA2R
0.0453 | 2.13 | 0.00636 | 0.222 | 0.0497 | SP1
0.525 | 3.12 | 0.4 | 0.382 | 0.345 | PCSK1N
0.794 | 1.15 | 0.858 | 0.879 | 0.414 | KLHL22
0.132 | 1.57 | 0.304 | 0.203 | -0.00861 | GTF2B
-0.586 | 3.88 | -0.559 | -0.598 | -0.475 | PMEL
